The results in this text go back to doi:10.1101/211250 (bioRxiv, 2017).

Amino acid sequences for entries named in this document (tags omitted). A change or cut given only in a name is not applied to a line headed by its entry. Residues count along the entry.
UniProt Q14160: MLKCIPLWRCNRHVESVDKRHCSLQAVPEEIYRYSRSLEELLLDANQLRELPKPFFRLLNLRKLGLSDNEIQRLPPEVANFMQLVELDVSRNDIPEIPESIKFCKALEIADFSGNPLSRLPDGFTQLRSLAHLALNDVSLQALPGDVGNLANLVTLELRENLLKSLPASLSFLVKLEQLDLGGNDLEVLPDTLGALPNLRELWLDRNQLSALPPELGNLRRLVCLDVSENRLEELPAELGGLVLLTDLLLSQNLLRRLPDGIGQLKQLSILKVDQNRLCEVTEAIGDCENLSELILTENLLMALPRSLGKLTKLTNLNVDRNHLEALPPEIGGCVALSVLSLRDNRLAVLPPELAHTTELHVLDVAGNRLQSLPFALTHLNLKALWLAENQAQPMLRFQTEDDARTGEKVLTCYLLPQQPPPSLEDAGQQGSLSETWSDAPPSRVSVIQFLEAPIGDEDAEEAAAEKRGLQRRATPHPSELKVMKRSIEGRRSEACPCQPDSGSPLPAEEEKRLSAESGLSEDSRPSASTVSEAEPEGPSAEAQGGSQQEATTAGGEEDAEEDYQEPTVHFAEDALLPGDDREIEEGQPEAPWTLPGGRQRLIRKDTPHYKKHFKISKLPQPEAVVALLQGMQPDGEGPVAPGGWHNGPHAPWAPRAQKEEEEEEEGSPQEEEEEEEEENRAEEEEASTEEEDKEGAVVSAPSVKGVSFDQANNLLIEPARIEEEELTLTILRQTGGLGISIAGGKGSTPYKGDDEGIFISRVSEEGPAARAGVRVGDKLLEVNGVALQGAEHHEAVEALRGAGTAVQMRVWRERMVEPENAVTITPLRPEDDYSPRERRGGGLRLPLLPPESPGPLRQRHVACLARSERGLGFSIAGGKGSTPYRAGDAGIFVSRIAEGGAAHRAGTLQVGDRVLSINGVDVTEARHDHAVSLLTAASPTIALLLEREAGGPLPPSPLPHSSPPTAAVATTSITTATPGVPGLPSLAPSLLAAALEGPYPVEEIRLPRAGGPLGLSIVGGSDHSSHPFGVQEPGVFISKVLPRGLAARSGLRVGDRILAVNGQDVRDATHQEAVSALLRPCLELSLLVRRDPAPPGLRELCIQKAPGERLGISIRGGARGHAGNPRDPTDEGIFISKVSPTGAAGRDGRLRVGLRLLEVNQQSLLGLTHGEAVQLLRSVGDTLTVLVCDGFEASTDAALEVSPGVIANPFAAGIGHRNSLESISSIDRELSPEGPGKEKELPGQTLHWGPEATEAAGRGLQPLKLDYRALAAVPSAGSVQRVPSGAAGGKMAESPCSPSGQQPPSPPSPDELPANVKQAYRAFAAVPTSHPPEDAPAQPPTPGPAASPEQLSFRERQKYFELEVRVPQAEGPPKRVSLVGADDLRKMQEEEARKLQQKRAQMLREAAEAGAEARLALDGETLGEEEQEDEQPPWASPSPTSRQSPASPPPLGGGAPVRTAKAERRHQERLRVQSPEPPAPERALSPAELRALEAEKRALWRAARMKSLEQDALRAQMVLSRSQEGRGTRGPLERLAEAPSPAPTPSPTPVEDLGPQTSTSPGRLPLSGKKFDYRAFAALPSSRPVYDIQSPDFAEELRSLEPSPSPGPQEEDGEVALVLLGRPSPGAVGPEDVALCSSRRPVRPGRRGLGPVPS
Scribble PDZ1: residues 719-829 of Q14160
UniProt Q15349: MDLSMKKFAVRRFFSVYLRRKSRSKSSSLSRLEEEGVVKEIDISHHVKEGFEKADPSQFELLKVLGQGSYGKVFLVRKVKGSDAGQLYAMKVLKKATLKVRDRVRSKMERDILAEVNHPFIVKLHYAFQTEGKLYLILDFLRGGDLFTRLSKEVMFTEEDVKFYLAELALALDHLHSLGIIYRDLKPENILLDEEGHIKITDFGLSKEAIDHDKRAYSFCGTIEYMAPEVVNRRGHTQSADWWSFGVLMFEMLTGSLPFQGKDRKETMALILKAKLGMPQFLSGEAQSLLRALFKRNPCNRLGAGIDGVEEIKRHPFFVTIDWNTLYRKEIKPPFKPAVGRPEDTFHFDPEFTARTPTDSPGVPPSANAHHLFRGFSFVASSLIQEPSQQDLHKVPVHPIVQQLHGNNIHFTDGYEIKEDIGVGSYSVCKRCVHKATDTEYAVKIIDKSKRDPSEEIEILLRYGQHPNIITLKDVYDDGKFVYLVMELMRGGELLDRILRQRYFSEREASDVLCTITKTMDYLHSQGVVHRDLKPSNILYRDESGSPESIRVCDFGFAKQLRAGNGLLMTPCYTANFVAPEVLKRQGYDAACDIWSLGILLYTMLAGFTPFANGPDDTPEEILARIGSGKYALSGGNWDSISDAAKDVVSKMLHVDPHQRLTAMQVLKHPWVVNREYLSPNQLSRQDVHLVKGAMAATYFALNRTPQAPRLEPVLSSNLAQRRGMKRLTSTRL

The target of assay [1] is GFP-tagged full-length Scribble (human) (UniProt Q14160). Nature of the assay: co-IP.
Assay [2] has as its target T1, FITC-labeled unphosphorylated MCC peptide (HTNETSL-coo-) (human).
T1 sequence (peptide, FITC label, position not stated): HTNETSL
Nature of the assay: MST.

Assay [3] concerns the target T2, FITC-labeled unphosphorylated RPS6KA2 peptide (RLTSTRL-coo-) (human).
T2 sequence (peptide, FITC label, position not stated): RLTSTRL
The assay is described as follows: MST.

Assay [4] deals with Scribble PDZ1 (human) (UniProt Q14160). The assay is described as follows: phage display selection.

No constants are given. Whether binding was seen depends on the method and setting. For some of these results: Binding seen in cells or lysates may run through a third protein. Some binding calls cover weakened binding; strength is not graded here. Non-standard residues stand in square brackets, D forms with d. No end group written: not given here. pS = N[C@@H](COP(=O)(O)O)C(=O)O

For the molecule “Flag-tagged RPS6KA2Δ (the three last amino acids truncated) (from UniProt Q15349 1-730) (domain or fragment)”, in assay [1], the binding result is listed as “no binding”.

As for “Flag-tagged full-length RPS6KA2 S730A (from UniProt Q15349 1-733)”, the binding result in assay [1] is “no binding”.

Consider “Flag-tagged full-length RPS6KA2 S730E (from UniProt Q15349 1-733)”, for which the binding entry in assay [1] was “binds”. The same measure, in the same setting: with “Flag-tagged full-length RPS6KA2 wild-type (from UniProt Q15349 1-733)” the entry was “no binding”.

B1: Shank1 PDZ (domain or fragment)
chain: TVLLQKKDSEGFGFVLRGAKAQTPIEEFTPTPAFPALQYLESVDEGGVAWRAGLRMGDFLIEVNGQNVVKVGHRQVVNMIRQGGNTLMVKVVMVT
For B1, the binding result in assay [2] and in assay [3] was “binds” in each case. On to KRSFIESNV [wild-type TANC1 peptide (…-coo-) displayed on phage], for which the binding result in assay [4] was “binds”.
